Data from publication PMC11217295, “The immune response to RNA suppresses nucleic acid synthesis by limiting ribose 5-phosphate” (The EMBO Journal, 2024).

Sequences of proteins named here, by UniProt entry; tags and fusion partners are left off. A change or cut given only in a name is not applied to a line headed by its entry.
UniProt P19525: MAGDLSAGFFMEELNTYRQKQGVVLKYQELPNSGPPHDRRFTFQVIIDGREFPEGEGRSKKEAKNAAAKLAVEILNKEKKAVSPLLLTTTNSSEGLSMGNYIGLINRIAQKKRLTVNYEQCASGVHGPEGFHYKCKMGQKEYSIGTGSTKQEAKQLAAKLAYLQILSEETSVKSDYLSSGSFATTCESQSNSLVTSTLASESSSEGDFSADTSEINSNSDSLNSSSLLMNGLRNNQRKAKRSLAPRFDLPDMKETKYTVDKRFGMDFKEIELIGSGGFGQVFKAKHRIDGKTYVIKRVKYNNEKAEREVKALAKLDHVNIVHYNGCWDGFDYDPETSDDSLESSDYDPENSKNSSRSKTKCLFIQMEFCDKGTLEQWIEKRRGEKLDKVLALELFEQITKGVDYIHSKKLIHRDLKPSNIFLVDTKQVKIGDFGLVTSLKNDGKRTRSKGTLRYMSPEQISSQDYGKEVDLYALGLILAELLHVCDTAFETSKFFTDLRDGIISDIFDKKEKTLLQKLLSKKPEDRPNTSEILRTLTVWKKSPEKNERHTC
UniProt P49247: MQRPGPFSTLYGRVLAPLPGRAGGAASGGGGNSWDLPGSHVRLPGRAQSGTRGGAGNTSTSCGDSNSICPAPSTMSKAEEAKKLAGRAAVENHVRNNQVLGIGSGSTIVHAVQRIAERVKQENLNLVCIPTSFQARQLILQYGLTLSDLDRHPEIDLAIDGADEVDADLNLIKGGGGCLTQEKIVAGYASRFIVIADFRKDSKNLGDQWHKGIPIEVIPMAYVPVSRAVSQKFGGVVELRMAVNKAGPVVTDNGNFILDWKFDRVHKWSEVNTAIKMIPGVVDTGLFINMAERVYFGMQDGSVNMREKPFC

How the values were obtained:
[1] = target: split Venus-tagged human Protein Kinase RNA-activated (PKR), kinase-dead point mutant K296R (human) (UniProt P19525); assay: affinity purification with mass spectrometry; HEK293 with suppressed PKR expression co-transfected with complementary split Venus-tagged PKR (100 ng) and RPIA (500 ng); RIPA lysate with phosphatase inhibitors after 48 h; reconstituted Venus complexes captured by GFP-Trap, trypsin digest, LC-MS/MS
[2] = target: split Venus-tagged human Protein Kinase RNA-activated (PKR), wild type (human) (UniProt P19525); assay: as above

binding [1]: binds
binding [2]: binds
Substance: split Venus-tagged human Ribose 5-Phosphate Isomerase A (RPIA) (from UniProt P49247 1-311) (enzyme)

No constants are given. Whether binding was seen depends on the method and setting. Binding seen in cells or lysates may run through a third protein. A yes stands for co-enrichment or nearness to the bait. Other partners may have been found.
